Publication PMC8096781

Target: T1, Flag-FOXM1D (overexpressed in HeLa cells) (UniProt Q08050)
T1 sequence: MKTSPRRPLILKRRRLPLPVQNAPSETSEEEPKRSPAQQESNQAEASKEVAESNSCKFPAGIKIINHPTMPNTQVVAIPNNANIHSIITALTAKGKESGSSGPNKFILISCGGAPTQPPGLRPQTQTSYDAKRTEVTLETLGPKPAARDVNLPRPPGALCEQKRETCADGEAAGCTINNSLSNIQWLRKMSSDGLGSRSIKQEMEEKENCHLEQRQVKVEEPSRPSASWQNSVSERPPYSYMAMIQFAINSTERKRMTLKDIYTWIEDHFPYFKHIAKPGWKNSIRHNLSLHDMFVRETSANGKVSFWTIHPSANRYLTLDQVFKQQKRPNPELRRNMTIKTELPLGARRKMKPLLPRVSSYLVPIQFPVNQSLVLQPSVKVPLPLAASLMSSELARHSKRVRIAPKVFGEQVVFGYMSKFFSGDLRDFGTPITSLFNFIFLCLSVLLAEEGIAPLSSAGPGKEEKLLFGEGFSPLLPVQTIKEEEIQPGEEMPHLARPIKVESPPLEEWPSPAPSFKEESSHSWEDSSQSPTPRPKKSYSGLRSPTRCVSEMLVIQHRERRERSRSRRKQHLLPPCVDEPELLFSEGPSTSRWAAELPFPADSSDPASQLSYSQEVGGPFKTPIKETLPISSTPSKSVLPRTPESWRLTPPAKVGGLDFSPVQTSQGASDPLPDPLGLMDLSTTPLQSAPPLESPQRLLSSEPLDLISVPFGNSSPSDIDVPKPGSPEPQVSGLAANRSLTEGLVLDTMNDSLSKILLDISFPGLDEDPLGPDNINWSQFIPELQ
Assay: affinity purification with mass spectrometry; Co-IP with rabbit anti-Flag antibody or rabbit control IgG isotype antibody from HeLa cells overexpressing Flag-FOXM1D, then LC-MS/MS

B1: endogenous VPS11 (HeLa cells) (protein, UniProt Q9H270 1-941)
chain: MAAYLQWRRFVFFDKELVKEPLSNDGAAPGATPASGSAASKFLCLPPGITVCDSGRGSLVFGDMEGQIWFLPRSLQLTGFQAYKLRVTHLYQLKQHNILASVGEDEEGINPLVKIWNLEKRDGGNPLCTRIFPAIPGTEPTVVSCLTVHENLNFMAIGFTDGSVTLNKGDITRDRHSKTQILHKGNYPVTGLAFRQAGKTTHLFVVTTENVQSYIVSGKDYPRVELDTHGCGLRCSALSDPSQDLQFIVAGDECVYLYQPDERGPCFAFEGHKLIAHWFRGYLIIVSRDRKVSPKSEFTSRDSQSSDKQILNIYDLCNKFIAYSTVFEDVVDVLAEWGSLYVLTRDGRVHALQEKDTQTKLEMLFKKNLFEMAINLAKSQHLDSDGLAQIFMQYGDHLYSKGNHDGAVQQYIRTIGKLEPSYVIRKFLDAQRIHNLTAYLQTLHRQSLANADHTTLLLNCYTKLKDSSKLEEFIKKKSESEVHFDVETAIKVLRQAGYYSHALYLAENHAHHEWYLKIQLEDIKNYQEALRYIGKLPFEQAESNMKRYGKILMHHIPEQTTQLLKGLCTDYRPSLEGRSDREAPGCRANSEEFIPIFANNPRELKAFLEHMSEVQPDSPQGIYDTLLELRLQNWAHEKDPQVKEKLHAEAISLLKSGRFCDVFDKALVLCQMHDFQDGVLYLYEQGKLFQQIMHYHMQHEQYRQVISVCERHGEQDPSLWEQALSYFARKEEDCKEYVAAVLKHIENKNLMPPLLVVQTLAHNSTATLSVIRDYLVQKLQKQSQQIAQDELRVRRYREETTRIRQEIQELKASPKIFQKTKCSICNSALELPSVHFLCGHSFHQHCFESYSESDADCPTCLPENRKVMDMIRAQEQKRDLHDQFQHQLKCSNDSFSVIADYFGRGVFNKLTLLTDPPTARLTSSLEAGLQRDLLMHSRRGT
Q: With B1 as the binder, how does the binding read?
A: binds

These are yes or no findings as the source states them, for the method shown. Binding seen in cells or lysates may run through a third protein. These calls come from enrichment with a bait or labelling near it, and not all partners need be listed. Sequences can lack the tags named with a protein.
